Measured values taken from patent publication US20200185064A1.
No constants are given. Whether binding was seen depends on the method and setting. Some entries that bind do so weakly or less than the wild type. Tags and fused reporters may be left off the sequences shown.

Amino acid sequences for entries named in this document (tags omitted).
UniProt P61073: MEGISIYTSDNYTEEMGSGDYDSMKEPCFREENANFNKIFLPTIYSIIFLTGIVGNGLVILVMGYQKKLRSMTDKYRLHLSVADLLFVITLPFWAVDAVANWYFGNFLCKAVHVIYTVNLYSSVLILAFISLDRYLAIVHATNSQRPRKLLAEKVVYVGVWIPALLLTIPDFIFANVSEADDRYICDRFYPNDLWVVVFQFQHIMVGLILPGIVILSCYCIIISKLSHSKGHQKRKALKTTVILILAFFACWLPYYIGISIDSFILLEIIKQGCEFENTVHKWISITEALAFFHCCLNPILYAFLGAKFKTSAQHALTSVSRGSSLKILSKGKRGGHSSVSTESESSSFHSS

B1: 3SM5-his tag (VH domain of the heavy chain of antibody CH65, with myc tag and his tag) (protein)
VH: MEVQLVQSGAEVKKPGASVKVSCKASGYTFTDYHINWVRQAPGQGLEWMGWIHPNSGDTNYAQKFQGWVTMTRDTAISTAYMEVNGLKSDDTAVYYCARGGLEPRSVDYYYYGMDVWGQGTTVTVSSEQKLISEEDLEHHHHHH
B2: 238D4-his tag (VHH)
VHH: EVQLMESGGGLVQAGGSLRLSCAASGRTFNNYAMGWFRRAPGKEREFVAAITRSGVRSGVSAIYGDSVKDRFTISRDNAKNTLYLQMNSLKPEDTAVYTCAASAIGSGALRRFEYDYSGQGTQVTVSS

Legend:
[1] = target: human CXCR4 receptor expressed transiently in HEK293 cells (human) (UniProt P61073); experiment: flow cytometry on HEK293 cells transfected with CXCR4
[2] = target: human CXCR4 receptor expressed transiently in HEK293 cells (human) (UniProt P61073); experiment: flow cytometry on HEK293 cells transfected with human CXCR4
[3] = target: CXCR4 fused to the SNAP tag, labelled with terbium, expressed in HEK293 cells (human) (UniProt P61073); experiment: FRET displacement of SDF1-d2 (12 nM) from Tb-labelled SNAP-CXCR4 on HEK293 cells
[4] = target: human CXCR4 receptor expressed transiently in HEK293 cells (human) (UniProt P61073); experiment: flow cytometry on HEK293 cells transfected with CXCR4, VHH at 1 µM, anti-His-APC

Row | Binder | binding [1] | binding [2] | binding [3] | binding [4]
1 | B1 | binds | binds | binds | –
2 | B2 | binds | – | – | binds
